Measured values as given in publication PMC11079023.

What was measured:
Experiment in all cases: two-hybrid; BD-M5DELLA (pGBKT7, RGA 199-587 and variants) and AD-JAZ1, AD-TCP14, AD-IDD2 or AD-BZR1 (pGADT7) co-transformed in yeast AH109; growth on selective medium lacking tryptophan, leucine and histidine, in some cases with 3AT
[1] = target: T1, BD-M5RGA^m1 (RGA 199-587 with G218A, V219A, R220A, fused to the GAL4 DNA-binding domain) (Arabidopsis) (UniProt Q9SLH3)
T1 sequence: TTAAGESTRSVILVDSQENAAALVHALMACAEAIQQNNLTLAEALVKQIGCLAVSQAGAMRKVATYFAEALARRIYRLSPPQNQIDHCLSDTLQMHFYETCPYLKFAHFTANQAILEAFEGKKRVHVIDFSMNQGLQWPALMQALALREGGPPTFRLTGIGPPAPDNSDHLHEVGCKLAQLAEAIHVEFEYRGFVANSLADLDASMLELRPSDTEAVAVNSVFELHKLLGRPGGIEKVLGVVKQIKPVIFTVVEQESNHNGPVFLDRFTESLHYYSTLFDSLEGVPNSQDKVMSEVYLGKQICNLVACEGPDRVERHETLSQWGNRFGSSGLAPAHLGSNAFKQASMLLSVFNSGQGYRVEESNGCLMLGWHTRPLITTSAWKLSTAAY

[2] = target: T2, BD-M5RGA^m3 (RGA from amino acid 199 with S578Stop, fused to the GAL4 DNA-binding domain) (Arabidopsis) (UniProt Q9SLH3)
T2 sequence: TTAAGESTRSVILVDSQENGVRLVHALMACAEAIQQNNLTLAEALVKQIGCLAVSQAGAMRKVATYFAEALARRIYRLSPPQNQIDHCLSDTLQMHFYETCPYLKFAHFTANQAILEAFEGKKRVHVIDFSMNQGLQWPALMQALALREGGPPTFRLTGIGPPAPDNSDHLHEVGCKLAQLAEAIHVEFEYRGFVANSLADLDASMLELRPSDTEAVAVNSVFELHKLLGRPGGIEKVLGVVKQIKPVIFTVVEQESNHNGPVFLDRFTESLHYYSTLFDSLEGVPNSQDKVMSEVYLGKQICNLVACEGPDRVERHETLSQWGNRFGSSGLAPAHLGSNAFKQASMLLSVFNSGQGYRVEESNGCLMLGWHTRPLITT

[3] = target: T3, BD-M5RGA^m2 (RGA 199-587 with H471A, Y472A, Y473A, fused to the GAL4 DNA-binding domain) (Arabidopsis) (UniProt Q9SLH3)
T3 sequence: T1 sequence with A20G, A21V, A22R, H273A, Y274A, Y275A

[4] = target: T4, BD-M5RGA (C-terminal part of RGA, amino acids 199 to 587, fused to the GAL4 DNA-binding domain) (Arabidopsis) (UniProt Q9SLH3)
T4 sequence: T1 sequence with A20G, A21V, A22R

[5] = target: T5, BD-M5RGA^m4 (RGA 199-587 with S578D, fused to the GAL4 DNA-binding domain) (Arabidopsis) (UniProt Q9SLH3)
T5 sequence: T1 sequence with A20G, A21V, A22R, S380D

**Q.** What does the source list for AD-JAZ1?
**A.** binding [1]: binds; binding [2]: no binding; binding [3]: no binding; binding [4]: binds; binding [5]: no binding

Positions count from the first letter of the chain named. No constants are given. Whether binding was seen depends on the method and setting. For some assays here: Binding can be weak; no strength is given. Where a sequence is shown, tags or fusion partners need not be part of it.
